Measurements reported in PubChem BioAssay AID1259267 (Sanger Institute, 2017).
Shown is one part, drawn at random, of 794 reagents tested. 9 of them (1.1%) were called active. 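Viability capped at 1; calls reflect loss of viability from knock-down alone, not synergy with drugs.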 Further read-outs or replicates are left out here. No sequences are given here. Not stated in the record: the amount of reagent, the time to read-out.

- Test: 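Essential and drug-synergistic knock-downs in GP5D bowel cancer cells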 (primary screen)
- Cells: human GP5D colorectal cancer cells
- Knock-down reagent: siRNA pool against human genes
- Treatment: anchor drugs at low dose: BYL719 1 µM, cetuximab 5 µg/ml, trametinib 10 nM, or DMSO vehicle
- Measurement: 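Viability against non-targeting pool, replicate mean: robust z-score for knock-down alone, fraction with DMSO, synergy with BYL719 1 µM, cetuximab 5 µg/ml, trametinib 10 nM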
- Scale: robust z-score, knock-down alone and viability with DMSO: higher = more viable cells; synergy score with trametinib: higher = stronger synthetic lethal synergy with drug
- Rule for the call: 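Active (essential alone) if knock-down without drug gives robust z-score under -3; drug synergy does not count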
- Meaning of the calls: active = essential alone; inactive = not essential

gene	robust z-score, knock-down alone	viability with DMSO (fraction of control)	synergy score with trametinib	Outcome
CTCF (CCCTC-binding factor)	0.029	0.833	0.25	inactive
EPHB2 (EPH receptor B2)	0.62	0.958	0.166	inactive
ULK1 (unc-51 like autophagy activating kinase 1)	0.817	1	0.059	inactive
AKT1 (AKT serine/threonine kinase 1)	-0.858	0.645	-0.00171	inactive
CSNK2A2 (casein kinase 2 alpha 2)	-0.197	0.785	0.118	inactive
PPP2R1A (protein phosphatase 2 scaffold subunit Aalpha)	-1.92	0.419	-0.141	inactive
CDKN2C (cyclin dependent kinase inhibitor 2C)	-1.24	0.564	0.151	inactive
AK3 (adenylate kinase 3)	-0.3	0.763	0.182	inactive
NEK11 (NIMA related kinase 11)	0.115	0.851	0.185	inactive
STK39 (serine/threonine kinase 39)	-3.32	0.123	-0.0981	active
PRPS2 (phosphoribosyl pyrophosphate synthetase 2)	0.265	0.883	-0.145	inactive
MAP4K3 (mitogen-activated protein kinase kinase kinase kinase 3)	-0.0719	0.812	0.0762	inactive
GSK3A (glycogen synthase kinase 3 alpha)	0.817	1	0.181	inactive
RSKR (ribosomal protein S6 kinase related)	0.47	0.926	-0.0256	inactive
RPS6KA4 (ribosomal protein S6 kinase A4)	-1.35	0.54	0.0052	inactive
TEC (tec protein tyrosine kinase)	0.331	0.897	-0.0485	inactive
GCK (glucokinase)	-0.145	0.796	0.258	inactive
ROCK2 (Rho associated coiled-coil containing protein kinase 2)	-0.651	0.689	0.103	inactive

As entered above:
Entry for PRPS2 (phosphoribosyl pyrophosphate synthetase 2) in “synergy score with trametinib”: -0.145
Value for AK3 (adenylate kinase 3) under “viability with DMSO (fraction of control)”: 0.763

The results go on:
gene	robust z-score, knock-down alone	viability with DMSO (fraction of control)	synergy score with trametinib	Outcome
GNAS (GNAS complex locus)	-0.577	0.705	0.0827	inactive
SRP72 (signal recognition particle 72)	-0.771	0.663	-0.2	inactive
CDC7 (cell division cycle 7)	0.817	1	0.18	inactive
ATRX (ATRX chromatin remodeler)	0.817	1	-0.0574	inactive
PCBP1 (poly(rC) binding protein 1)	-0.00671	0.825	0.0487	inactive
GOLGA5 (golgin A5)	0.817	1	0.00756	inactive
RUNX1 (RUNX family transcription factor 1)	-1.69	0.469	0.0971	inactive
CLK2 (CDC like kinase 2)	0.817	1	-0.107	inactive
IGF1R (insulin like growth factor 1 receptor)	-0.91	0.634	-0.357	inactive
UHMK1 (U2AF homology motif kinase 1)	-0.174	0.79	0.063	inactive
MYH10 (myosin heavy chain 10)	-0.0897	0.808	-0.0387	inactive
FXN (frataxin)	0.179	0.865	-0.0161	inactive
PFKL (phosphofructokinase, liver type)	-0.434	0.735	-0.173	inactive
PFKFB1 (6-phosphofructo-2-kinase/fructose-2,6-biphosphatase 1)	-0.88	0.64	-0.00761	inactive
LRRK1 (leucine rich repeat kinase 1)	0.817	1	-0.101	inactive
CASP8 (caspase 8)	0.817	1	-0.197	inactive
